Among the data in PMC10571763 are binding values, retold here.

For assay [1], the target named is T1, Tspan8 (human) (UniProt P19075).
T1 sequence: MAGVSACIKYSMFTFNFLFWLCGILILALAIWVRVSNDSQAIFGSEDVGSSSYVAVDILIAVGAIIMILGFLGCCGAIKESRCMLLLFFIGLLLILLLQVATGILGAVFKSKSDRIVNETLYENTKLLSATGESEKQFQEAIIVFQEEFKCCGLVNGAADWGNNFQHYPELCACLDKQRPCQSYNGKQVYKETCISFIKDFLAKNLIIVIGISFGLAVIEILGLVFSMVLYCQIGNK
Put plainly: co-IP; Is1-tspan8 cells, surface proteins biotinylated before lysis in Brij97; IP of Tspan8 with TS29.2; half eluted with 1% Triton X100 and the biotinylated proteins recovered on streptavidin beads; blots with TS29.2 (non-reducing) and ECE1 antibody (reducing).

Assay [2] has as its target T1, Tspan8 (human). In words: co-IP; Is1-tspan8 cells, 1% Brij97 lysate (30 mM Tris pH 7.4, 150 mM NaCl, 1 mM CaCl2, 1 mM MgCl2), 4 °C; IP with mAb TS29.2 (Tspan8) or TS9 (CD9) and protein G-sepharose; western blot for ECE1.

These are yes or no findings as the source states them, for the method shown. Binding seen in cells or lysates may run through a third protein. Some entries that bind do so weakly or less than the wild type.

B1: endothelin converting enzyme 1 (ECE1) (enzyme, UniProt P42892 1-770)
chain: MRGVWPPPVSALLSALGMSTYKRATLDEEDLVDSLSEGDAYPNGLQVNFHSPRSGQRCWAARTQVEKRLVVLVVLLAAGLVACLAALGIQYQTRSPSVCLSEACVSVTSSILSSMDPTVDPCHDFFSYACGGWIKANPVPDGHSRWGTFSNLWEHNQAIIKHLLENSTASVSEAERKAQVYYRACMNETRIEELRAKPLMELIERLGGWNITGPWAKDNFQDTLQVVTAHYRTSPFFSVYVSADSKNSNSNVIQVDQSGLGLPSRDYYLNKTENEKVLTGYLNYMVQLGKLLGGGDEEAIRPQMQQILDFETALANITIPQEKRRDEELIYHKVTAAELQTLAPAINWLPFLNTIFYPVEINESEPIVVYDKEYLEQISTLINTTDRCLLNNYMIWNLVRKTSSFLDQRFQDADEKFMEVMYGTKKTCLPRWKFCVSDTENNLGFALGPMFVKATFAEDSKSIATEIILEIKKAFEESLSTLKWMDEETRKSAKEKADAIYNMIGYPNFIMDPKELDKVFNDYTAVPDLYFENAMRFFNFSWRVTADQLRKAPNRDQWSMTPPMVNAYYSPTKNEIVFPAGILQAPFYTRSSPKALNFGGIGVVVGHELTHAFDDQGREYDKDGNLRPWWKNSSVEAFKRQTECMVEQYSNYSVNGEPVNGRHTLGENIADNGGLKAAYRAYQNWVKKNGAEHSLPTLGLTNNQLFFLGFAQVWCSVRTPESSHEGLITDPHSPSRFRVIGSLSNSKEFSEHFRCPPGSPMNPPHKCEVW
As to B1, the binding entry with Tspan8 (human) [1] and with Tspan8 (human) [2] was “binds” in each case.
